23 sequences from publication PMC7819943, “Rice protein-binding microarrays: a tool to detect cis-acting elements near promoter regions in rice” can be followed below.

The other results are listed elsewhere or left out.

This assay has as its target T1, OsSMF1 (Oryza sativa, UniProt Q6ZLB0 1-436).
T1 sequence: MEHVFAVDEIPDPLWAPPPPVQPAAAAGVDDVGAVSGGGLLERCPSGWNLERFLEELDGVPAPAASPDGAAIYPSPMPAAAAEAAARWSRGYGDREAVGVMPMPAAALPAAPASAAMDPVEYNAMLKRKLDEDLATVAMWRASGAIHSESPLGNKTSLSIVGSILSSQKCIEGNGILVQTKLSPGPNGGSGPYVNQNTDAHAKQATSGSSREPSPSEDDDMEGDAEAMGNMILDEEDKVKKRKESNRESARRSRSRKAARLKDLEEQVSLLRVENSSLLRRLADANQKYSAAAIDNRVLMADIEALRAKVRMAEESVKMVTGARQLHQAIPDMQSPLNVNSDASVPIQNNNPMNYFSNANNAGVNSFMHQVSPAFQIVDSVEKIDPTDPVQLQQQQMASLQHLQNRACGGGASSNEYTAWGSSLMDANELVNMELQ
The assay is described as follows: protein-binding microarray (RPBM); PBS, 2% BSA, 51.3 ng/ul salmon testes DNA, 50 uM zinc acetate, 200 nM TF, 25 C, 1 h; high values mean tight binding. Conditions: protein: recombinant; tags: N-terminal polyhistidine and DsRed monomer fusion (pET32a); chain copies: 2; label: CyDye5-dUTP incorporated in the synthesized complementary strand; 3' TTTTT single-stranded linker to array surface; dsDNA, one strand shown. A digest of the protocol:
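Using Ni–NTA, transcription factors fused N-terminally to polyhistidine and DsRed were purified after expression in E. coli BL21-CodonPlus. These were incubated at 200 nM with a blocked, double-stranded custom Agilent array for 1 h at 25 °C in a buffer containing 50 µM zinc acetate, and the array was washed. The binding signal is per-feature fluorescence intensity (arbitrary units) on an Axon 4000B scanner.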
As for “TTTATATATATATATATATATATATATATGCCCATATGGTCGGAGTCACCTAGTGCAG”, the binding signal is 24900 fluorescence intensity (a.u.).

Take “TGATCCAGTAATACTCTGACACGCCTAGCAGGATGTTAGGCGGAGTCACCTAGTGCAG”: the binding signal is 3190 fluorescence intensity (a.u.).

Regarding “AAACCCGGAGAGAGTGGTGTTCGTGGACGTCACCCCATTTCGGAGTCACCTAGTGCAG”, the binding signal is 4440 fluorescence intensity (a.u.).

Regarding “TTCCAAAACCTATGAAATTCCTATGGAATGACACATTGCACGGAGTCACCTAGTGCAG”, the binding signal was 3300 fluorescence intensity (a.u.).

For the sequence “TTGTAAGACGTGGATCTGTATGTCAACAATTGTCGTTTGTCGGAGTCACCTAGTGCAG”, the binding signal was 6310 fluorescence intensity (a.u.).

“GTTGAGGATAGCTTTGCTGGGTCACTTCTGGACATAGGTCCGGAGTCACCTAGTGCAG”: the binding signal is 3410 fluorescence intensity (a.u.).

“TCCTCCATAACAGTATCGCTACCCACGTTTGAGTGGTGCTCGGAGTCACCTAGTGCAG”: the binding signal is 3410 fluorescence intensity (a.u.).

Consider “AGTTGGCGTGGATGGCCACGATTCTGGACCCGGGGTTGCCCGGAGTCACCTAGTGCAG”, for which the binding signal is 3600 fluorescence intensity (a.u.).

As for “TGCGCGATCCACAGGTAGTGGAGGGATTGGAGACACGTGTCGGAGTCACCTAGTGCAG”, the binding signal is 5770 fluorescence intensity (a.u.).

Take “GACTACAGATCTGCAGCATGAAATCCAAGACGTAATGTGTCGGAGTCACCTAGTGCAG”: the binding signal was 3430 fluorescence intensity (a.u.).

For the sequence “AAGGGCCTACTTTCTCAAATTACCCCACGGGCATATTCACCGGAGTCACCTAGTGCAG”, the binding signal was 33400 fluorescence intensity (a.u.).

For the sequence “ACTCAGTACAGTCCAGAAAGATCACCGGTATAATTATACACGGAGTCACCTAGTGCAG”, the binding signal is 3150 fluorescence intensity (a.u.).

On to “AGAAATAGGACGACGTCGATGACAGTGTCCAATCCCGGGACGGAGTCACCTAGTGCAG”, for which the binding signal is 3790 fluorescence intensity (a.u.).

For the sequence “GCGACGGCGCTGGCCCGATGGATAGCAGGTGTGACGCGCCCGGAGTCACCTAGTGCAG”, the binding signal is 3620 fluorescence intensity (a.u.).

In the case of “ACACAGTAACACGTAAGGCCTCCTTGTATGGGCCTCAATCCGGAGTCACCTAGTGCAG”, the binding signal is 4430 fluorescence intensity (a.u.).

Regarding “AACGTCAAGTACTCACGTGGTCCACGAATATTTAAGCCTACGGAGTCACCTAGTGCAG”, the binding signal was 4480 fluorescence intensity (a.u.).

As for “TATATATAACAGAAATTTGACATGTGGCTCTATCTTATACCGGAGTCACCTAGTGCAG”, the binding signal is 4760 fluorescence intensity (a.u.).

For “CCGGCCTCACGGCTCACCTGACCTGTCACCTGAATCACCTCGGAGTCACCTAGTGCAG”, the binding signal was 6440 fluorescence intensity (a.u.).

Consider “CGACATCGGCCAGAAGCTCACCATGATGTTCTACGAGCGCCGGAGTCACCTAGTGCAG”, for which the binding signal was 3280 fluorescence intensity (a.u.).

For the sequence “GTATAATATGTGTCGGTAATCTGTAGACTGGCTGACTGGGCGGAGTCACCTAGTGCAG”, the binding signal is 6040 fluorescence intensity (a.u.).

As to “TTTGATGATGTGGCGAGCTAATTCTCAGCTATTCCCACGGCGGAGTCACCTAGTGCAG”, the binding signal is 8480 fluorescence intensity (a.u.).

In the case of “AAAGATTAATCCATCCAGGCACGCAGGATCCGAGTCAGTCCGGAGTCACCTAGTGCAG”, the binding signal is 4430 fluorescence intensity (a.u.).

Turning to “ACTGGCCATGCTGCTTAACGCTGATCCATGGTGACTTGGCCGGAGTCACCTAGTGCAG”, the binding signal is 6050 fluorescence intensity (a.u.).
